## Cleaved PARP in drug-treated melanoma cells

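The test systems are human melanoma cell lines, treated with a pair of drugs for 72 h and then stained and imaged. The read-out is the fraction of cleaved-PARP-positive nuclei, in % of that fraction in the DMSO control; 200 means twice the control level of this apoptosis marker. Every drug was used at one fixed concentration, the higher of two screened. No replicate spread is given; individual values may be noisy. The marker varies much from line to line, for technical or biological reasons.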
Only some of the drugs and lines screened are listed, without regard to their results.

Drugs:
FH535: Cc1cc([N+](=O)[O-])ccc1NS(=O)(=O)c1cc(Cl)ccc1Cl at 5 µM
GW9662: O=C(Nc1ccccc1)c1cc([N+](=O)[O-])ccc1Cl at 10 µM
vatalanib: Clc1ccc(Nc2nnc(Cc3ccncc3)c3ccccc23)cc1 at 10 µM
AS-252424: O=C1NC(=O)/C(=C/c2ccc(-c3ccc(F)cc3O)o2)S1 at 5 µM
lapatinib: CS(=O)(=O)CCNCc1ccc(-c2ccc3ncnc(Nc4ccc(OCc5cccc(F)c5)c(Cl)c4)c3c2)o1 at 4 µM
tamatinib: COc1cc(Nc2ncc(F)c(Nc3ccc4c(n3)NC(=O)C(C)(C)O4)n2)cc(OC)c1OC at 2 µM
dasatinib: Cc1nc(Nc2ncc(C(=O)Nc3c(C)cccc3Cl)s2)cc(N2CCN(CCO)CC2)n1 at 0.02 µM
decitabine: Nc1ncn([C@H]2C[C@H](O)[C@@H](CO)O2)c(=O)n1 at 0.5 µM

| # | Drugs | COLO 792 |
|---|---|---|
| 1 | FH535 + dasatinib | 313 |
| 2 | GW9662 + AS-252424 | 77.9 |
| 3 | FH535 + vatalanib | 138 |
| 4 | vatalanib + tamatinib | 540 |
| 5 | FH535 + decitabine | 202 |
| 6 | lapatinib + AS-252424 | 144 |
| 7 | GW9662 + vatalanib | 205 |
| 8 | GW9662 + decitabine | 69.1 |
| 9 | vatalanib + dasatinib | 116 |
| 10 | dasatinib + decitabine | 239 |
| 11 | decitabine + lapatinib | 225 |
| 12 | tamatinib + FH535 | 157 |
| 13 | lapatinib + dasatinib | 217 |
| 14 | lapatinib + GW9662 | 207 |
| 15 | dasatinib + GW9662 | 170 |
| 16 | tamatinib + GW9662 | 146 |
| 17 | tamatinib + AS-252424 | 356 |
| 18 | dasatinib + AS-252424 | 124 |
| 19 | decitabine + vatalanib | 123 |
| 20 | tamatinib + lapatinib | 642 |
| 21 | AS-252424 + FH535 | 149 |
| 22 | FH535 + GW9662 | 102 |

2 of the entries, repeated:

* lapatinib + GW9662 | COLO 792: 207
* tamatinib + lapatinib | COLO 792: 642

Source: doi:10.1371/journal.pone.0140310, primary screening data, rounded.